Laboratory results reported in PMC8666665.

Target: CD95(1–175)-BirA (human)
Assay: proximity labelling; BioID in CD95 k.o. HEK/293T cells reconstituted with CD95-BirA constructs, streptavidin pull-down, immunoblotting

binding: no binding
B1: Kip1 ubiquitination-promoting complex protein 2 (KPC2), endogenous in HEK/293T (protein, UniProt Q9BSL1 1-405)
chain: MFVQEEKIFAGKVLRLHICASDGAEWLEEATEDTSVEKLKERCLKHCAHGSLEDPKSITHHKLIHAASERVLSDARTILEENIQDQDVLLLIKKRAPSPLPKMADVSAEEKKKQDQKAPDKEAILRATANLPSYNMDRAAVQTNMRDFQTELRKILVSLIEVAQKLLALNPDAVELFKKANAMLDEDEDERVDEAALRQLTEMGFPENRATKALQLNHMSVPQAMEWLIEHAEDPTIDTPLPGQAPPEAEGATAAASEAAAGASATDEEARDELTEIFKKIRRKREFRADARAVISLMEMGFDEKEVIDALRVNNNQQNAACEWLLGDRKPSPEELDKGIDPDSPLFQAILDNPVVQLGLTNPKTLLAFEDMLENPLNSTQWMNDPETGPVMLQISRIFQTLNRT

These are yes or no findings as the source states them, for the method shown. In cells and extracts the contact can be indirect. These calls come from enrichment with a bait or labelling near it, and not all partners need be listed. A no says only that the protein was not detected with the bait.
